Experimental data taken from publication PMC12431657, “Discovery and mechanistic insights of dibenzoylmethane as a broad spectrum inhibitor of coronavirus” (PLOS Pathogens, 2025).
Structures can show the parent of a compound that is named as a salt. Where two headings read alike, the source gives them in different places. Screen size: about 3,300 compounds; about 95 (3%) showed an effect of 50% or more. This is one part of the list.

Test system: HCoV-229E
Parameters: species or system Huh-7; HTS, protection from HCoV-229E induced cell death, luminescent cell viability (CellCounting-Lite 2.0), inhibition rate
Settings: 24 h post infection, 1 h compound pre-incubation, 10 µM, inhibitor

Structure (SMILES)	229E Inhibition rate	229E Inhibition rate (229E Inhibition rate, 24 h)
C[C@@H]1O[C@@H](O[C@@H]2[C@@H](O)[C@H](OCCc3ccc(O)c(O)c3)O[C@H](COC(=O)/C=C/c3ccc(O)c(O)c3)[C@H]2O)[C@H](O)[C@H](O)[C@H]1O [Isoacteoside]	4.2%	
Oc1ccc(CCc2cc(O)cc(O)c2)cc1 [Dihydroresveratrol]	10.7%	
C/C=C/C[C@@H](C)[C@@H](O)[C@H]1C(=O)N[C@@H](C(C)C)C(=O)N(C)CC(=O)N(C)[C@@H](CC(C)C)C(=O)N[C@@H](C(C)C)C(=O)N(C)[C@@H](CC(C)C)C(=O)N[C@@H](C)C(=O)N[C@H](C)C(=O)N(C)[C@@H](CC(C)C)C(=O)N(C)[C@@H](CC(C)C)C(=O)N(C)[C@@H](C(C)C)C(=O)N1C [Cyclosporin D]	41.6%	
CC(C)=CCc1c(O)ccc(-c2coc3cc(O)cc(O)c3c2=O)c1O [Licoisoflavone A]	0%	
CC(C)CCC[C@@H](C)[C@H]1CC[C@H]2[C@@H]3CCC4=CC(=O)CC[C@]4(C)[C@H]3CC[C@]12C [Cholestenone]	3.3%	
COc1cc2c(cc1OC)OC(C)(C)C=C2 [Precocene II]	11.1%	
C=C1[C@H](O)C[C@H]2[C@@H](/C=C(/C)C(=O)[C@@]3(O)C[C@H](C)[C@H](O)[C@@H]3[C@H]1O)C2(C)C [7beta-Hydroxylathyrol]	29.3%	
COC(=O)C1=C(O)c2ccccc2C(=O)[C@]1(CC=C(C)C)C1=CC(=O)c2ccccc2C1=O [Rubipodanone A]	31.1%	
CC(C)C[C@H]1C(=O)O[C@H](Cc2ccccc2)C(=O)N(C)[C@@H](CC(C)C)C(=O)O[C@H](C)C(=O)N(C)[C@@H](CC(C)C)C(=O)O[C@H](Cc2ccccc2)C(=O)N(C)[C@@H](CC(C)C)C(=O)O[C@H](C)C(=O)N1C [PF 1022A]	4.4%	
O=C(O)/C=C/c1cccc(O)c1 [(E)-m-Coumaric acid]	44.6%	
O=C(O)CC(=O)C(=O)O [Oxaloacetic acid]	12.8%	
Nc1ccn([C@H]2C[C@H](O)[C@@H](CO)O2)c(=O)n1 [2'-Deoxycytidine]	14.3%	
COc1ccc(-c2cc(=O)c3c(OC)c(OC)c(OC)cc3o2)cc1 [Scutellarein tetramethyl ether]	23.3%	
C=CC(=C)CC/C=C(\C)CCC=C(C)C [(E)-β-Farnesene]	12.7%	
Cc1ncc(CO)c(C=O)c1O [Pyridoxal hydrochloride]	31.1%	
COc1cc2oc(=O)ccc2c(OC)c1C[C@@H](O)C(C)(C)O [Toddalolactone]	9.6%	
C/C=C(\C)C(=O)O[C@@H]1c2cc(OC)c(OC)c(OC)c2-c2c(cc3c(c2OC)OCO3)C[C@H](C)[C@@]1(C)O [Tigloylgomisin P]	40.2%	
CC(C)=CCC[C@](C)(O[C@@H]1O[C@H](CO[C@@H]2OC[C@H](O)[C@H](O)[C@H]2O)[C@@H](O)[C@H](O)[C@H]1O)[C@H]1CC[C@]2(C)[C@@H]1[C@H](O)C[C@@H]1[C@@]3(C)CC[C@H](O[C@@H]4O[C@H](CO)[C@@H](O)[C@H](O)[C@H]4O[C@@H]4O[C@H](CO)[C@@H](O)[C@H](O)[C@H]4O)C(C)(C)[C@@H]3CC[C@]12C [Ginsenoside Rb2]	8.6%	
C[C@@H]1O[C@@H](O[C@H]2[C@H](O)[C@@H](O)[C@H](OC[C@H]3O[C@@H](OC(=O)[C@]45CCC(C)(C)C[C@H]4C4=CC[C@@H]6[C@@]7(C)CC[C@H](O[C@@H]8OC[C@H](O)[C@H](O)[C@H]8O)[C@@](C)(CO)[C@@H]7CC[C@@]6(C)[C@]4(C)CC5)[C@H](O)[C@@H](O)[C@@H]3O)O[C@@H]2CO)[C@H](O)[C@H](O)[C@H]1O [Hederacoside D]		40.4%
NC(=O)C[C@H](N)C(=O)O [L-Asparagine]	8.5%	
CC1=CCCC(C)(C)[C@H]1/C=C/C(C)=C/C=C/C(C)=C/C=C/C=C(C)/C=C/C=C(C)/C=C/C1=C(C)CCCC1(C)C [α-Carotene]	29.7%	
CCCCCCCCCCC(=O)OC [Methyl undecanoate]	56.2%	
O[C@@H]1[C@@H](O)[C@H](OC/C=C/c2ccccc2)O[C@H](CO[C@@H]2OC[C@H](O)[C@H](O)[C@H]2O)[C@H]1O [Rosavin]	56.6%	
O=C(/C=C/c1ccc(O)cc1)NCCc1c[nH]c2ccc(O)cc12 [N-(p-Coumaroyl) Serotonin]	20.1%	
C[C@H](O)[C@@H](O)[C@@H](O)[C@H](O)C=O [(-)-Fucose]	14.7%	
COc1cc([C@H]2Oc3ccc([C@H]4Oc5cc(O)cc(O)c5C(=O)[C@@H]4O)cc3O[C@@H]2CO)ccc1O [Isosilybin A]	8.9%	
CCCCCCCCCCCCCCCCCCCCCC(=O)O [Docosanoic acid]	3.6%	

Structure (SMILES)	229E Inhibition rate	229E Inhibition rate (229E Inhibition rate, 24 h)
NCCCCCC(=O)O [6-Aminocaproic acid]	7.9%	
C=C[C@H]1CN2CC[C@H]1C[C@@H]2[C@@H](O)c1ccnc2ccc(OC)cc12 [Quinidine]		36.6%
C[C@@H]1CC[C@@]2(OC1)O[C@H]1C[C@H]3[C@@H]4CC=C5C[C@@H](O)CC[C@]5(C)[C@H]4CC[C@]3(C)[C@H]1[C@@H]2C [Diosgenin]	42.1%	
O=C(c1ccccc1)c1ccccc1 [Benzophenone]	0%	
CC(C)=CCC[C@](C)(O)[C@H]1CC[C@]2(C)[C@@H]1[C@H](O)C[C@@H]1[C@@]3(C)CC[C@H](O)C(C)(C)[C@@H]3[C@@H](O)C[C@]12C [(20S)-Protopanaxatriol]	10%	
NCC(O)c1ccc(O)cc1 (stereo not drawn) [Octopamine (hydrochloride)]	41.3%	
COc1ccc(-c2cc(=O)c3c(O)cc(O[C@@H]4O[C@H](C(=O)O)[C@@H](O)[C@H](O)[C@H]4O)cc3o2)cc1O [DiosMetin 7-O-β-D-Glucuronide]	23%	
O=c1cc(-c2ccccc2)c2c(O)cc(O)cc2o1 [LC3-mHTT-IN-AN2]	50.8%	
C[S+](CC[C@H](N)C(=O)[O-])C[C@H]1O[C@@H](n2cnc3c(N)ncnc32)[C@H](O)[C@@H]1O (stereo partly drawn) [S-Adenosyl-L-methionine (tosylate)]	10.1%	
OCCc1ccccc1 [2-Phenylethanol]	9.3%	
CCCCC/C=C\C/C=C\C/C=C\CCCCC(=O)O [Gamma-Linolenic acid]	44.5%	
CC(C)=CCC[C@@](C)(O)[C@H]1CC[C@]2(C)[C@@H]1[C@H](O)C[C@@H]1[C@@]3(C)CC[C@H](O)C(C)(C)[C@@H]3CC[C@]12C [(20R)-Protopanaxadiol]	7.2%	
OC[C@H]1O[C@@H](Oc2c(O)cc(O)cc2/C=C/c2ccc(O)cc2)[C@H](O)[C@@H](O)[C@@H]1O [2,3,5,4'-Tetrahydroxystilbene 2-O-β-D-glucoside]	20.8%	
CC1=C[C@]23C(=O)[C@@H](C=C4COC(C)(C)O[C@H]4C2(O)[C@H]1O)[C@H]1[C@@H](C[C@H]3C)C1(C)C (stereo partly drawn) [Ingenol-5,20-acetonide]	3.3%	
CCCC(N)C(=O)O (racemic) [DL-Norvaline]	14.1%	
O=C(O)c1ccc2c(c1)OCO2 [Piperonylic acid]	22.5%	
O=c1ccc2cc(O[C@@H]3O[C@H](CO)[C@@H](O)[C@H](O)[C@H]3O)c(O)cc2o1 [Esculin]	8.8%	
COc1cc(O)c2c(=O)c(OC)c(-c3ccc(OC)c(O)c3)oc2c1 [Ayanin]	20.7%	
NCCCS(=O)(=O)O [Tramiprosate]	14%	
C=C1C(=O)O[C@H]2C[C@@H](C)[C@@H]3CCC(=O)[C@@]3(C)[C@@H](OC(C)=O)[C@H]12 [Ergolide]	57.9%	
Cn1c(=O)c2[nH]c(=O)[nH]c2n(C)c1=O [1,3-Dimethyluric acid]	7.1%	
C/C=C(/C)C(=O)O[C@H]1c2cc3c(c4c2[C@@]2(CO4)C(=O)C(OC)=C(OC)C=C2C[C@@H](C)[C@H]1C)OCO3 [Heteroclitin D]	47.7%	
C/C(=C/CC[C@]1(CO)CC[C@]2(C)[C@H](CC[C@@H]3[C@@]4(C)CC[C@H](O[C@@H]5O[C@H](CO)[C@@H](O)[C@H](O)[C@H]5O[C@@H]5O[C@H](CO)[C@@H](O)[C@H](O)[C@H]5O)[C@@](C)(CO[C@@H]5O[C@H](CO)[C@@H](O)[C@H](O)[C@H]5O)[C@@H]4CC[C@]32C)[C@H]1O)CO [Hosenkoside C]	18.4%	
C/C=C(\C)C(=O)O[C@H]1[C@H](O)[C@]2(COC(C)=O)[C@H](O)C[C@]3(C)C(=CC[C@@H]4[C@@]5(C)CC[C@H](O[C@@H]6O[C@H](C(=O)O)[C@@H](O[C@@H]7O[C@H](CO)[C@@H](O)[C@H](O)[C@H]7O)[C@H](O)[C@H]6O[C@@H]6O[C@H](CO)[C@@H](O)[C@H](O)[C@H]6O)[C@](C)(CO)[C@@H]5CC[C@]43C)[C@@H]2CC1(C)C [Isoescin IA]	9.5%	
CC1(C)CC(=O)CC(C)(C)N1 [Triacetonamine]	5.6%	
CCCCCCCCCCCCCCCCCCCCCCCCCCCC(=O)O [Octacosanoic acid]	15.5%	
C=C(CC[C@@H](C(=O)O)[C@H]1[C@H](O)C[C@@]2(C)C3=CC[C@@H](C(=C)C)[C@](C)(CCC(=O)O)C3=CC[C@]12C)C(C)C [Poricoic acid A]	20.2%	

Structures above containing four or more nitrogen atoms:
Structure (SMILES)	229E Inhibition rate	229E Inhibition rate (229E Inhibition rate, 24 h)
C/C=C/C[C@@H](C)[C@@H](O)[C@H]1C(=O)N[C@@H](C(C)C)C(=O)N(C)CC(=O)N(C)[C@@H](CC(C)C)C(=O)N[C@@H](C(C)C)C(=O)N(C)[C@@H](CC(C)C)C(=O)N[C@@H](C)C(=O)N[C@H](C)C(=O)N(C)[C@@H](CC(C)C)C(=O)N(C)[C@@H](CC(C)C)C(=O)N(C)[C@@H](C(C)C)C(=O)N1C [Cyclosporin D]	41.6%	
CC(C)C[C@H]1C(=O)O[C@H](Cc2ccccc2)C(=O)N(C)[C@@H](CC(C)C)C(=O)O[C@H](C)C(=O)N(C)[C@@H](CC(C)C)C(=O)O[C@H](Cc2ccccc2)C(=O)N(C)[C@@H](CC(C)C)C(=O)O[C@H](C)C(=O)N1C [PF 1022A]	4.4%	
C[S+](CC[C@H](N)C(=O)[O-])C[C@H]1O[C@@H](n2cnc3c(N)ncnc32)[C@H](O)[C@@H]1O (stereo partly drawn) [S-Adenosyl-L-methionine (tosylate)]	10.1%	
Cn1c(=O)c2[nH]c(=O)[nH]c2n(C)c1=O [1,3-Dimethyluric acid]	7.1%	
